# Experimental data published in the supplement of paper PMC12819154, “High-throughput peptide-centric local stability assay extends protein–ligand identification to membrane proteins, tissues and bacteria” (Nature Structural & Molecular Biology, 2025).
# Protein sequences, listed by entry. Tags and fused reporters are not part of them. Lines headed by an entry give the natural chain unless they say otherwise; changes in a name come on top.
# UniProt Q9H3H3: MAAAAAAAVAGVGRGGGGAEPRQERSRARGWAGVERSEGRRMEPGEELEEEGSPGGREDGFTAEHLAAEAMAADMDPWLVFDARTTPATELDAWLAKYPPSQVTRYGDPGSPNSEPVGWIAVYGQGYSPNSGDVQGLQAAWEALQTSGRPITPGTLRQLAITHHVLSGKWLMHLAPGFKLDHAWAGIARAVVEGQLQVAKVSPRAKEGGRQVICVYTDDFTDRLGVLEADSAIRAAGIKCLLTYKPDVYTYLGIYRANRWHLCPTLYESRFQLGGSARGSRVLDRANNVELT
# UniProt Q9BY77: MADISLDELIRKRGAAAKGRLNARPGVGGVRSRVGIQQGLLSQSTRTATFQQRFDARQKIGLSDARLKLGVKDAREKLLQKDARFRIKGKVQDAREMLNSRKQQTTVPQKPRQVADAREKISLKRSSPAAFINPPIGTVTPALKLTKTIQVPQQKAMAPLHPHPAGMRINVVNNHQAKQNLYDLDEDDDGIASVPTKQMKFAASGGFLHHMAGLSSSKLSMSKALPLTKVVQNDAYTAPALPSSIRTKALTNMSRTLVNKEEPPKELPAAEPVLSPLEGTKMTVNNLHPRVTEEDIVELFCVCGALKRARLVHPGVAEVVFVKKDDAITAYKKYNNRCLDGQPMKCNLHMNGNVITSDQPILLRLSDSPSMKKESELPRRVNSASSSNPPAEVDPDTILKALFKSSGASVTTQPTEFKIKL
# UniProt Q9BXM7, whole entry: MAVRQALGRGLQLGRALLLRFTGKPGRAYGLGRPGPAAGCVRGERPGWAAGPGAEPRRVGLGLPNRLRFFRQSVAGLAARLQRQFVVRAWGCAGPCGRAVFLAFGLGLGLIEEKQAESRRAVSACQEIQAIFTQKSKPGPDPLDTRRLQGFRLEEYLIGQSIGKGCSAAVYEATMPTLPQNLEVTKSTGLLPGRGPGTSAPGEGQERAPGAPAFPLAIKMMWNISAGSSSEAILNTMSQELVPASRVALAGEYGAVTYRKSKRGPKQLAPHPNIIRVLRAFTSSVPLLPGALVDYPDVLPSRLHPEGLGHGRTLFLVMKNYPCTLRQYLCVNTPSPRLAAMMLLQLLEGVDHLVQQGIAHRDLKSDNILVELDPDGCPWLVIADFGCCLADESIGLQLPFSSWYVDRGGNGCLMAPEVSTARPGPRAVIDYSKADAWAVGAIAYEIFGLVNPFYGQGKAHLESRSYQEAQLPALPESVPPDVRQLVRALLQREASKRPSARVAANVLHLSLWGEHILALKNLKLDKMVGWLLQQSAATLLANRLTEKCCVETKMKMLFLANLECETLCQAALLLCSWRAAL
# UniProt Q9GZM5: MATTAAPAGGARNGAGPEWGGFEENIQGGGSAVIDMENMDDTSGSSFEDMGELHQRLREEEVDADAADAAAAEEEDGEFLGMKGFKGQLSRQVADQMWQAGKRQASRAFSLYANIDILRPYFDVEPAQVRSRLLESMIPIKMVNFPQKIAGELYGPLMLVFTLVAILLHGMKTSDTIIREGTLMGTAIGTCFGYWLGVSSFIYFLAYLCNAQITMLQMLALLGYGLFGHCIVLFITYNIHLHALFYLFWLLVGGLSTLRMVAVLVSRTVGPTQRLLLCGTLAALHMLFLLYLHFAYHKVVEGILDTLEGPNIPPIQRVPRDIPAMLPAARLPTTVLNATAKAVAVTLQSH
# UniProt Q9H089: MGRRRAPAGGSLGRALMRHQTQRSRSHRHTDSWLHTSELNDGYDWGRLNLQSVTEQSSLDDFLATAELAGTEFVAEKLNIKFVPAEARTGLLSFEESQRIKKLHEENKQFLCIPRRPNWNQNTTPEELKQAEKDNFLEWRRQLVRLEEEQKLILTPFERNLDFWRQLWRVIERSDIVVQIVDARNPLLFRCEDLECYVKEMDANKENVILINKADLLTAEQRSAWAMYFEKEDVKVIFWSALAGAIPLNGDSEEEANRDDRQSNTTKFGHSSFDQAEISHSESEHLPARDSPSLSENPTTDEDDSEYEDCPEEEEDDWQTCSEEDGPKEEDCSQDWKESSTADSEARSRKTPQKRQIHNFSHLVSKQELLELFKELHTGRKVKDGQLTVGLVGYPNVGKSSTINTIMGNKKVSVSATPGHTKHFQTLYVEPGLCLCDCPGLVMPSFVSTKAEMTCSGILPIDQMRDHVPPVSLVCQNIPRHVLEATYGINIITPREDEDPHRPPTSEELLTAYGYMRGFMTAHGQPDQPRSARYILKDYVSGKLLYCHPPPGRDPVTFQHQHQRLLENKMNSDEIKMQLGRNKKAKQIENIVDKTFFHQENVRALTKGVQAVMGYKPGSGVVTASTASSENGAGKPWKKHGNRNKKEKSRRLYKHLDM
# UniProt Q9GZN1, whole entry: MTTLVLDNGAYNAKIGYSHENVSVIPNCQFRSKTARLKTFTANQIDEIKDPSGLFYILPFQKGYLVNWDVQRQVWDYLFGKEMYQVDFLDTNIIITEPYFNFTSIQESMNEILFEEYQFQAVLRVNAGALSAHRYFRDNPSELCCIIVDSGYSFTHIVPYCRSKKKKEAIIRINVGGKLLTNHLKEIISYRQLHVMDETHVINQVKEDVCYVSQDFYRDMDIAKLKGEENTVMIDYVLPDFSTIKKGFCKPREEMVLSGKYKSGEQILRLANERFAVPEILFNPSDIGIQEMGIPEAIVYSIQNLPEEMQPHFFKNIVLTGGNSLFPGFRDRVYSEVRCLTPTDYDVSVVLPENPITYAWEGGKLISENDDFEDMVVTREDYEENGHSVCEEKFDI
# The list shows a part of the results. Small differences around the control level are noise.
# Compound: CN[C@@H]1C[C@H]2O[C@@](C)([C@@H]1OC)n1c3ccccc3c3c4c(c5c6ccccc6n2c5c31)C(=O)NC4 [staurosporine]
# Experiment: log2 fold change of tryptic peptide abundance, ligand vs vehicle (limited proteolysis) (log2 ratio); higher = more trypsin-susceptible (destabilized)
# Settings: ligand concentration: 20 uM; sample: K562 cleared lysate; digestion: 4 min, 22 C (HT-PELSA RT4min, Orbitrap Astral)
row,Target,log2 fold change
1,"C11orf68 (peptide sequence: WHLCPTLYESR, peptide start residue: 260) (UniProt Q9H3H3)",-0.326
2,"POLDIP3 (peptide sequence: INVVNNHQAK, peptide start residue: 169) (UniProt Q9BY77)",0.37
3,"C20orf27 (peptide sequence: VMDRHHGTPMLLDGVK, peptide start residue: 140) (UniProt Q9GZN8)",0.689
4,"UniProt Q9BXM7 (peptide sequence: APGAPAFPLAIK, peptide start residue: 208)",0.208
5,"YIPF3 (peptide sequence: QVADQMWQAGKR, peptide start residue: 92) (UniProt Q9GZM5)",-0.0959
6,"LSG1 (peptide sequence: EMDANKENVILINK, peptide start residue: 200) (UniProt Q9H089)",0.55
7,"ACTR6 (peptide sequence: GFCKPREEMVLSGK, peptide start residue: 247) (UniProt Q9GZN1)",-0.724
